Data: publication doi:10.1101/2021.05.03.442108

Target: NKS1 (-cYFP) (Arabidopsis thaliana)
Assay: split reporter

| binding | Binder |
| --- | --- |
| no binding | Got1P homolog (-nYFP) (protein, UniProt Q6NMM1 1-140) MASLEMNDLKKIGLGLTGFGVFFTFLGVIFVFDKGLIAMGNILFLAGVTLTIGINPAIQFFTKRQNFKGTISFGLGFLLVVFGWPIFGLLLESYGFLVLFSGFWPTLAVFLQRIPLLGWLLQQPYIRSLLDRYRGRRVPV |
| binds | QUA1 (GAUT8) (-nYFP) (protein, UniProt Q9LSG3 1-559) MANHHRLLRGGGSPAIIGGRITLTAFASTIALFLFTLSFFFASDSNDSPDLLLPGVEYSNGVGSRRSMLDIKSDPLKPRLIQIRKQADDHRSLALAYASYARKLKLENSKLVRIFADLSRNYTDLINKPTYRALYDSDGASIEESVLRQFEKEVKERIKMTRQVIAEAKESFDNQLKIQKLKDTIFAVNEQLTNAKKQGAFSSLIAAKSIPKGLHCLAMRLMEERIAHPEKYTDEGKDRPRELEDPNLYHYAIFSDNVIAASVVVNSAVKNAKEPWKHVFHVVTDKMNLGAMQVMFKLKEYKGAHVEVKAVEDYTFLNSSYVPVLKQLESANLQKFYFENKLENATKDTTNMKFRNPKYLSILNHLRFYLPEMYPKLHRILFLDDDVVVQKDLTGLWEIDMDGKVNGAVETCFGSFHRYAQYMNFSHPLIKEKFNPKACAWAYGMNFFDLDAWRREKCTEEYHYWQNLNENRALWKLGTLPPGLITFYSTTKPLDKSWHVLGLGYNPSISMDEIRNAAVVHFNGNMKPWLDIAMNQFRPLWTKHVDYDLEFVQACNFGL |

No constants are given. Whether binding was seen depends on the method and setting. Binding seen in cells or lysates may run through a third protein. Binding can be weak; no strength is given. Where a sequence is shown, tags or fusion partners need not be part of it.
